# Source: article PMC10163288
# Some of the results follow.
# B1: il10ra_site1_normal_mot_HHH_b2_08143_000000031_0001_38_55_H_._HHH_b2_03077_af2_0001_0000600033_0000001_0 (protein)
# chain: SSSSSDREEELQVEALLWFAKQIHNPEALEIALEEAERIARELGNEELEEEVEEVKKELSSSSSS
# B2: il10ra_site1_normal_mot_HHH_b2_02116_af2_000000165_0001_41_55_H_._HHH_b2_02079_af2_0001_0000200009_0000001_0 (protein)
# chain: SSSSSEEEHLVKTALRLAEEALRAGDPESARRLVRAARILAEENNDEELERLVEEVEKLVNSSSS
# B3: il10ra_site1_sap_23_mot_HHH_b2_03568_000000058_0001_1_19_H_._HHH_b1_01191_0001_0000100003_0000001_0_0001 (protein)
# chain: SSSSSSSEEERVEELLEEAREIEDRRRVIRLLLEALQLAIQLKDAELLREIWELFHRLSSSSSSS
# B4: il10ra_site1_sap_17_mot_HHH_b2_02053_af2_000000006_0001_3_19_H_._HHH_b1_01685_0001_0000100014_0000002_0_0001_af2pred_0001 (protein)
# chain: SSSSSIEEKVSELAFEAAELALRGNPEEAEELLEEVERLAKELNDPKLEEAVRILKRFIELSSSS
# B5: il10ra_site1_sap_22_mot_HHH_b2_01447_af2_000000258_0001_1_20_H_._HHH_b1_02808_af2_0001_0000200010_0000001_0_0001 (protein)
# chain: SSSSSELYRLSREVAELLANGNPEEAQRVIEEAERLAEELNNRVVLYNIRILLRSVELLLRSSSS
# B6: il10ra_site1_sap_20_mot_HHH_b1_01886_000000262_0001_1_18_H_._HHH_b1_05552_af2_0001_0000500031_0000001_0_0001_af2pred_dldesign_0_af2pred (protein)
# chain: SSSSSDLAAVLAEAEALFARSKTVSPEEKEVILQRIVDLALKHENLEVAKLANELLKELSSSSSS
# B7: il10ra_site1_normal_mot_HHH_b1_05357_000000034_0001_23_39_H_._HHH_b1_00943_0002_0000400044_0000001_0_af2pred_0001 (protein)
# chain: SSSSSSSKEEVERLLEEAEHVDDPRELAYLLTRAFAIAYRLGDPELEELVKEVAIRLISSSSSSS
# B8: il10ra_site1_normal_mot_HHH_b2_07006_000000108_0001_1_19_H_._HHH_b2_08013_af2_0001_0000100001_0000001_0 (protein)
# chain: SSSSDEAYRIAREAIEEAIELQRNGNPEEAEELLREAIREVEELGNTAARWALRHLLRLVSSSSS
# B9: il10ra_site1_sap_13_mot_HHH_b1_06819_af2_000000053_0001_23_38_H_._ems_3hC_185_af2_0001_0000500012_0000001_0_0001 (protein)
# chain: SSSSTEEEIERLLREAEEAEEEGNPEEAIEILLEAIRLAYQLGDEEVLQRIWELVLELAKRSSSS
# B10: il10ra_site1_normal_mot_HHH_b2_07440_af2_000000021_0001_1_18_H_._HHH_b1_06862_af2_0001_0000300034_0000001_0 (protein)
# chain: SSSSDELERVLELSKEAFRLLLRGNPEEAEELLEEARKLAEELGDERLLEVIEDLLRAINSSSSS
# B11: il10ra_site1_normal_mot_HHH_b1_03859_af2_000000004_0001_44_57_H_._HHH_b1_04060_af2_0001_0000100001_0000002_0 (protein)
# chain: SSSSSSEEEKYVKLALHFAEALEDPEAARLLLRAALEIARNANDEELEREVEKKLEEVEKSSSSS
# B12: il10ra_site1_normal_mot_HHH_b1_00999_000000080_0001_41_55_H_._HHH_b2_04674_0001_0000100003_0000002_0 (protein)
# chain: SSSSDEEERELEELLEELKELVEKGDEERFLRVIQELIRLAFRLSDQEALRKLWELARELGSSSS
# B13: il10ra_site1_normal_mot_HHH_b1_05056_000000217_0001_1_20_H_._HHH_b2_00620_0001_0000300031_0000002_0 (protein)
# chain: SSSSDEEEVEEIKKEIERAIEEGNREEALELLQRAVQLAYRLKDEELLRELWELVKLVADSSSSS
# B14: il10ra_site1_sap_16_mot_HHH_b2_00092_000000181_0001_22_39_H_._750e19d4ca9b34c144e44c01c74de867_0001_af2_0001_0000300026_0000001_0_0001 (protein)
# chain: SSSSDEEEVEELIKEIEELLEEGDPHKAVELIRRLAELAHELEDPELARIVLRLSREVVDISSSS
# B15: il10ra_site1_normal_mot_HHH_b2_00273_000000062_0001_23_39_H_._HHH_b1_02510_0001_0000300045_0000001_1 (protein)
# chain: SSSSDEEERELEELLEELEELLRKNNREEFLRLAIEVIQLAFRLGDQEVLQRVVELVRRLASSSS
# B16: il10ra_site1_normal_mot_HHH_b2_07569_000000265_0001_38_56_H_._HHH_b2_07241_0001_0000500014_0000001_0 (protein)
# chain: SSSSDLEEEVEELLEEAKHIKDPREVAELLLRATQLAFRANDPRLVQLVWEVAKKIFKELSSSSS
# B17: il10ra_site1_sap_18_mot_HHH_b2_02022_af2_000000170_0001_1_16_H_._HHH_b2_06062_af2_0001_0000600006_0000001_0_0001 (protein)
# chain: SSSSDAAEALSEQLKKALELALENNDEEALEWALRNAKNVARLANDEELEEVIEEVEKLISSSSS
# B18: il10ra_site1_sap_21_mot_HHH_b1_05377_000000047_0001_42_55_H_._HHH_b2_07861_af2_0001_0000100010_0000001_0_0001 (protein)
# chain: SSSSDLARRIYEALREAAKLDSDGNPEEAEELVKEAAELAEENNNRVMLALLENLLKLIEGSSSS
# B19: il10ra_site1_sap_25_mot_HHH_b1_06837_000000150_0001_20_37_H_._HHH_b1_06434_af2_0001_0000900100_0000001_0_0001 (protein)
# chain: SSSSDEEEERIRELLEEVEELLKEGNFEEALELAQEALRLIYRASNEELLHELWRIITKNSSSSS
# B20: il10ra_site1_sap_20_mot_HHH_b2_04680_000000215_0001_1_16_H_._HHH_b1_02695_0001_0000200018_0000001_0_0001_af2pred_0001 (protein)
# chain: SSSSDEEEVEKEIRELLEEARKISDRREVAYLLTRAFALATKLGDPELEELVRRVAKELASSSSS
# B21: il10ra_site1_sap_11_mot_HHH_b2_03438_af2_000000049_0001_18_34_H_._HHH_b2_03634_0001_0000200045_0000001_0_0001 (protein)
# chain: SSSSDEEIERILKLIQEAFRLALRGDPEEAKRLLEEAEELAEEINDPRLLRMARDLLEAINSSSS
# B22: il10ra_site1_sap_15_mot_HHH_b2_04646_000000019_0001_1_20_H_._HHH_b1_08112_af2_0001_0000300009_0000001_0_0001 (protein)
# chain: SSSSDVEEEVEELLEQAEELARRGNPEEAYKLLKEAAELASEANDPELQRLVVEVSRRVIGSSSS
# B23: il10ra_site1_sap_19_mot_HHH_b2_03684_000000265_0001_40_56_H_._70f831dd54c9627821668b4a84eabd29_0001_1_0001_0000400010_0000001_0_0001 (protein)
# chain: SSSSNEETQEVFRALERIMELAAEGNPEEARKLAEELEELIEELGNRLFLIQLRFVLRRLSSSSS
# B24: il10ra_site1_sap_15_mot_HHH_b1_05056_000000217_0001_1_20_H_._HHH_b2_05962_0001_0000200009_0000002_0_0001 (protein)
# chain: SSSSSEVEREVEEILEEVEELRRQGDPREAIKLLLEALKLAYRAKNPELLRLIWEVVERIGSSSS
# B25: il10ra_site1_sap_23_mot_HHH_b1_04940_000000219_0001_1_18_H_._HHH_b1_06522_0001_0000300012_0000001_1_0001 (protein)
# chain: SSSSDEEEAEEVLRKYEELLEEVHKKDVHKAYEVLKEAIELLLELGDAEAALEISRFFYRISSSS
# B26: il10ra_site1_normal_mot_6bb093d23f5042b6c551c363657da53b_0001_1_000000153_0001_51_65_H_._HHH_b1_01157_0002_0000400029_0000001_0_af2pred_0001 (protein)
# chain: SSSSDREERLEELVEEIEELLEEGDRERVARLLVELAKLAAELNDEEALRLVVELAKLLYSSSSS
# B27: il10ra_site1_normal_mot_HHH_b1_00103_000000293_0001_1_15_H_._HHH_b2_03403_0001_0000600051_0000002_0_af2pred_dldesign_0_af2pred (protein)
# chain: SSSSSSSPLDEETVRLIKKAHELEDPEEAKKVIEKAVELAKKAGSEILLHAAEYLLKQVSSSSSS
# B28: il10ra_site1_sap_24_mot_HHH_b2_05797_000000294_0001_1_19_H_._HHH_b1_00484_0001_0000200007_0000001_0_0001 (protein)
# chain: SSSSDEEVEEVVHLLQKAFRLLLRGNPEEARKLLEEAEELAEEANDPRLLRIIRDMLRDTSSSSS
# B29: il10ra_site1_normal_mot_HHH_b2_07569_000000265_0001_38_56_H_._HHH_b2_05235_0001_0000200013_0000001_0 (protein)
# chain: SSSSSSDVEELLEEAQELRERGNPEEAAEVLLRALQRIYELGDEELVQELWELVRRIFSSSSSSS
# B30: il10ra_site1_sap_8_mot_HHH_b2_07596_000000080_0001_23_39_H_._HHH_b1_07436_0001_0000300022_0000001_0_0001_af2pred_0001 (protein)
# chain: SSSSSEEEKRARELYEELRELIEEGDREEVKKVFHELVRLALEGNDREAARLIAEILRRRSSSSS
# B31: il10ra_site1_normal_mot_HHH_b1_05357_000000034_0001_23_39_H_._HHH_b1_01707_af2_0001_0000400015_0000001_0_af2pred_0001 (protein)
# chain: SSSSDEEEREELEKQVEEALRRGDPHRAAYIVIRLFALANKLNDPELRKLAEELAREVAELSSSS
# B32: il10ra_site1_sap_11_mot_HHH_b1_00456_000000263_0001_1_17_H_._HHH_b2_01341_af2_0001_0000100005_0000002_0_0001 (protein)
# chain: SSSSDVEEEVERLIEEAERLLEEGDPREAARVLQEAVRLAYESGDEELLQLIWELVHEIAKSSSS
# B33: il10ra_site1_normal_mot_HHH_b1_04100_af2_000000180_0001_1_19_H_._HHH_b1_03786_0001_0000200014_0000001_0_af2pred_0001 (protein)
# chain: SSSSSHIERLLRIALKALEYAVELGDEEAIRRTTKDIRASARDANDPEVEERAEELLREFGSSSS
# B34: il10ra_site1_sap_27_mot_HHH_b1_06128_000000102_0001_1_20_H_._HHH_b2_05585_af2_0001_0000500028_0000002_0_0001_af2pred_0001 (protein)
# chain: SSSSSNSEEVVKLLRRAIEALRQGDEEEARKLLEEAEEIAEEANNPLLQKLLELLKRQINSSSSS
# B35: il10ra_site1_sap_15_mot_HHH_b1_01563_af2_000000118_0001_40_54_H_._HHH_b2_04514_0001_0000300013_0000002_0_0001 (protein)
# chain: SSSSSSEEVEELLEEIREAAEEGDHRRVYELLRRVAELAHELEDPELSRRILELLREWIHSSSSS
# B36: il10ra_site1_normal_mot_HHH_b2_00273_000000062_0001_23_39_H_._HHH_b2_00672_af2_0001_0000100004_0000001_0 (protein)
# chain: SSSSSEEEELEELIEEIRKLIERNDPERALRLLQKLVQLAFRLRDPEALRIAWELAKLLGSSSSS
# B37: il10ra_site1_normal_mot_HHH_b1_02997_000000220_0001_39_52_H_._HHH_b2_07229_0001_0000400021_0000001_0_af2pred_0001 (protein)
# chain: SSSSSEEQEEAIRLLREAAELLADGNPEEAEELVERALELAREAGDPELELIAEYLLKQLSSSSS
# Target: il10ra, Q13651
# Test: yeast display titration
row,Binder,apparent Kd
1,B1,inactive: no binding seen
2,B2,inactive: no binding seen
3,B3,inactive: no binding seen
4,B4,inactive: no binding seen
5,B5,inactive: no binding seen
6,B6,inactive: no binding seen
7,B7,inactive: no binding seen
8,B8,inactive: no binding seen
9,B9,inactive: no binding seen
10,B10,inactive: no binding seen
11,B11,inactive: no binding seen
12,B12,inactive: no binding seen
13,B13,inactive: no binding seen
14,B14,inactive: no binding seen
15,B15,inactive: no binding seen
16,B16,inactive: no binding seen
17,B17,inactive: no binding seen
18,B18,inactive: no binding seen
19,B19,inactive: no binding seen

row,Binder,apparent Kd
1,B20,inactive: no binding seen
2,B21,inactive: no binding seen
3,B22,inactive: no binding seen
4,B23,inactive: no binding seen
5,B24,inactive: no binding seen
6,B25,inactive: no binding seen
7,B26,inactive: no binding seen
8,B27,inactive: no binding seen
9,B28,inactive: no binding seen
10,B29,inactive: no binding seen
11,B30,inactive: no binding seen
12,B31,inactive: no binding seen
13,B32,inactive: no binding seen
14,B33,inactive: no binding seen
15,B34,inactive: no binding seen
16,B35,inactive: no binding seen
17,B36,inactive: no binding seen
18,B37,inactive: no binding seen

# 2 successive entries from above, for reference:
row,Binder,apparent Kd
12,B31,inactive: no binding seen
13,B32,inactive: no binding seen
